Binding data for 1 substance are collected here from PMC8532385.

Sequences of proteins named here, by UniProt entry; tags and fusion partners are left off.
UniProt O00429: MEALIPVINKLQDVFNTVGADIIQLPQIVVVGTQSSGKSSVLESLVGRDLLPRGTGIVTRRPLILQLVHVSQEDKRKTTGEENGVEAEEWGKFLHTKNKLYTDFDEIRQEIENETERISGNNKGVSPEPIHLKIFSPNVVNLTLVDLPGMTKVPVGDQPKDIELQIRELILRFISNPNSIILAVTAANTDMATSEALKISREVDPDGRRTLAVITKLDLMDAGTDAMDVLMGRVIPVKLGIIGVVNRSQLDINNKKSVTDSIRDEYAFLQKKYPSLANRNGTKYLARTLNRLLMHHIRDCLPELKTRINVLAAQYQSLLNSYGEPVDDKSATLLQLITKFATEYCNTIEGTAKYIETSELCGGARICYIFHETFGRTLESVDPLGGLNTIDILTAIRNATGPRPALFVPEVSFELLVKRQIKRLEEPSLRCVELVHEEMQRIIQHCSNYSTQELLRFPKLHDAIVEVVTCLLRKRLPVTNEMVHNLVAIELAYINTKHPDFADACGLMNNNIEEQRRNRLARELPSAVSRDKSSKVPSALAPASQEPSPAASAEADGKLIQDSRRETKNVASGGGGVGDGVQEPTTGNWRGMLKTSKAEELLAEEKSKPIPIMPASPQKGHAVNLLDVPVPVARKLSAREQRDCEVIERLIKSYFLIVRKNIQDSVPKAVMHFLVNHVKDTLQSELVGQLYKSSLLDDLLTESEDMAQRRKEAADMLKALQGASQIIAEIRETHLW

Holding throughout (experiment): co-IP; 293T cells transfected with V5-tagged MIEF1, MIEF2 or deletion mutants, in vivo crosslinked with 1% formaldehyde (10 min, room temperature), lysed in 1% NP-40 with sonication; anti-V5 agarose beads 2 h at room temperature; Western blot of endogenous partners
Test [1] addresses T1, MIEF2^Δ235-250 (V5-tagged) (human) (UniProt Q96C03).
T1 sequence: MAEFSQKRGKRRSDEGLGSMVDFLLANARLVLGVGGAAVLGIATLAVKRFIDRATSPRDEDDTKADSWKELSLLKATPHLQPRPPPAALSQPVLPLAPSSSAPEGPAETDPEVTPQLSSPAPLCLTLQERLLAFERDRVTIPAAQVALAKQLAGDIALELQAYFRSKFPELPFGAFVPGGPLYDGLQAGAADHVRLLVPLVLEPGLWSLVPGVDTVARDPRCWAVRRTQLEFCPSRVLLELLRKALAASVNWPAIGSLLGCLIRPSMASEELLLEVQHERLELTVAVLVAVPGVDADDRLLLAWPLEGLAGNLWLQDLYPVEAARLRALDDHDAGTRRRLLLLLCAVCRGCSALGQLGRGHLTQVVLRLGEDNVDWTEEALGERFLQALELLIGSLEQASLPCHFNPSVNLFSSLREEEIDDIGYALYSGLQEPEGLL

Test [2] addresses T2, MIEF1^Δ296-337 (V5-tagged) (human) (UniProt Q9NQG6).
T2 sequence: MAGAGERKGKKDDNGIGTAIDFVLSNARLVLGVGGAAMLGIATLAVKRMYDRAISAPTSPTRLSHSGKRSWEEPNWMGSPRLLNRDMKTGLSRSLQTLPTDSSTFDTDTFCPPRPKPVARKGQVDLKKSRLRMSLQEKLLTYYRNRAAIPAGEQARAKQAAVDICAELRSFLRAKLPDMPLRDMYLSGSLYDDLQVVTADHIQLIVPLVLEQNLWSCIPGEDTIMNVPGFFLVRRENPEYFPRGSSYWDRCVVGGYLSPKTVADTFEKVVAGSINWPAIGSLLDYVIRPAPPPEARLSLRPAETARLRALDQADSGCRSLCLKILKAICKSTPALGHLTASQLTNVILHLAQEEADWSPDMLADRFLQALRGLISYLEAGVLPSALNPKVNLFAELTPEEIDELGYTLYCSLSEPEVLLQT

The target in test [3] is T3, MIEF2^Δ425-454 (V5-tagged) (human) (UniProt Q96C03).
T3 sequence: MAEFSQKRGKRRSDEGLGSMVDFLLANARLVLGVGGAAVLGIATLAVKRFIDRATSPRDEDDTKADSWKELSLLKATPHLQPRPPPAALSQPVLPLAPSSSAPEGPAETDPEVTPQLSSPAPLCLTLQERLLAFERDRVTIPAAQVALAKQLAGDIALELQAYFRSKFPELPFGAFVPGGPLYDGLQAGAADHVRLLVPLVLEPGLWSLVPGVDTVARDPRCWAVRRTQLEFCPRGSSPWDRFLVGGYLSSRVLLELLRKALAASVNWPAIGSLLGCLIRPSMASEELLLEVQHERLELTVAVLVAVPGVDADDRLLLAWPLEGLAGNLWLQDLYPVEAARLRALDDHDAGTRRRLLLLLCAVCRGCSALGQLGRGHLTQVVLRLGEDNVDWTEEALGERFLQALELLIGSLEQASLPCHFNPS

Test [4] concerns the target T4, MIEF1^Δ345-380 (V5-tagged) (human) (UniProt Q9NQG6).
T4 sequence: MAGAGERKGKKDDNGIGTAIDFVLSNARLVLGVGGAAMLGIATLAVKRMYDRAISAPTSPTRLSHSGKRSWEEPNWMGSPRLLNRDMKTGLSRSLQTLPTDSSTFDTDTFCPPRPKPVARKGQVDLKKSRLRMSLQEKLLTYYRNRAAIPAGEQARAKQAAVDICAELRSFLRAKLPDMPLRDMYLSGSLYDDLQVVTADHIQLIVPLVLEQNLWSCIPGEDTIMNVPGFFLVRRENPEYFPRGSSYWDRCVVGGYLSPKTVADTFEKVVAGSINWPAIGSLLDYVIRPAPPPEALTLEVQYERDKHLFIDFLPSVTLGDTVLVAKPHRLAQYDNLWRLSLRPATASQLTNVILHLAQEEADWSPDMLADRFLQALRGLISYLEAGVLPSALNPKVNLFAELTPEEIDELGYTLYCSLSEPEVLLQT

Test [5] has as its target T5, MIEF2^Δ151-160-V5 (Drp1 binding-deficient mutant) (human) (UniProt Q96C03).
T5 sequence: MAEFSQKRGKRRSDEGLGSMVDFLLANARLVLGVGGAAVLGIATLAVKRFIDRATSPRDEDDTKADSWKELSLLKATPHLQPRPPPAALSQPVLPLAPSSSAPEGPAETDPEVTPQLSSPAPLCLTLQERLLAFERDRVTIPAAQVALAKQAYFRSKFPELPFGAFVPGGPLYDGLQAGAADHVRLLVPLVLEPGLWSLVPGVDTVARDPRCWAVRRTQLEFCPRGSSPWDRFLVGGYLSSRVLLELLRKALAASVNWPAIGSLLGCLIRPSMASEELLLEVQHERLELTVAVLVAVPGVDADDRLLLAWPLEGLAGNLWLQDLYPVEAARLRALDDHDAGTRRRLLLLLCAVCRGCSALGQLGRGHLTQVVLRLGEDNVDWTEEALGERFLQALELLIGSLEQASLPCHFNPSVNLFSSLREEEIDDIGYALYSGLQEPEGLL

No constants are given. Whether binding was seen depends on the method and setting. In cells and extracts the contact can be indirect. Some entries that bind do so weakly or less than the wild type. Tags and fused reporters may be left off the sequences shown.

On to “dynamin-related protein 1 (Drp1), endogenous (from UniProt O00429 1-736)”, for which the binding entry in test [1] is listed as “no binding”; in test [2], “no binding”; in test [3], “binds”; in test [4] it was “no binding”; in test [5] it was “no binding”.
